Assay results as given in PubChem BioAssay AID1347076 (National Center for Advancing Translational Sciences (NCATS), 2019).
The whole screen tested about 400,000 compounds, of which about 13,000 (3.2%) were called active. Inconclusive results, whose numbers are uncertain, are shown with a selection of clear calls. Calls follow the shape of the dose curve; as a rule, active = well fitted cell-killing curve with a large enough effect; inconclusive = small, poorly fitted or top-dose-only effect, or effect the other way; inactive = flat fitted curve, though single readings scatter. Potencies of inconclusive entries are doubtful fits and often do not repeat.

Test: qHTS assay for MDR1-selective chemotherapeutics: Primary screen using the drug-selected MDR subline cells KB-V1; also: nearly all actives have a fitted effect of over 60% in size
Settings: KB-V1 MDR cells viability, CellTiter-Glo, 72 h; activity change, negative = cytotoxicity: at 46.1 µM (top of the series)
Outline: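 Compound-treated KB-V1 multidrug-resistant cells, 72 h, 37 degrees C; viability by CellTiter-Glo. Fitted qHTS curves give the values.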
% is scaled to controls: 0 for no effect and ±100 for the full control effect; potency is read from the fitted curve at half-maximal effect.

SMILES	Potency	activity change, negative = cytotoxicity
CCc1cccc(NC(=O)CCCSc2nc3ccccc3[nH]2)c1	inconclusive: 20.6 µM [cytotoxic, single point]	–
CCN(Cc1ccccc1)S(=O)(=O)c1cc2c3c(c1)CCN3C(=O)CC2	inconclusive: 29.1 µM [cytotoxic, single point]	–
Cc1ncsc1CCC(=O)N1CCCC(C(=O)c2cccc(Cl)c2)C1 (stereo not given)	inconclusive: 29.1 µM [cytotoxic, single point]	–
CCOc1ccccc1N1CCN(C(=O)c2c(Cl)cnn2C)CC1	inconclusive: 20.6 µM [cytotoxic, partial curve, poor fit]	–
COC(=O)Nc1nc(-c2ccccc2)c(C(=O)c2ccc(Cl)cc2)s1	active: 0.58 µM	–
O=C(NCc1ccccc1)C(c1ccccc1)N(C(=O)c1csnn1)c1ccc(F)cc1 (stereo not given)	inconclusive: 8.2 µM [cytotoxic, partial curve]	–
Fc1ccccc1C(c1nnnn1Cc1ccc2c(c1)OCO2)N1CCN(Cc2ccccc2)CC1 (stereo not given)	inconclusive: 9.2 µM [cytotoxic, partial curve, poor fit]	–
COc1ccc(CN(C)CC(=O)Nc2ccc(Cl)cc2C(F)(F)F)c(OC)c1	inconclusive: 18.4 µM [cytotoxic, single point]	–
Cc1nc(Oc2ccccc2C)c2oc3ccccc3c2n1	inactive	–
OC1c2cc(Cl)ccc2-c2c(Cl)cc(Cl)cc21 (stereo not given)	inconclusive: 29.1 µM [cytotoxic, single point]	–
c1ccc(-n2cnnc2SCc2nc3ccccc3s2)cc1	active: 20.6 µM	–
O=C(NCc1cccs1)c1ccc2c(c1)ncn2C1CCCC1	inconclusive: 29.1 µM [cytotoxic, single point]	–
CN(C)CCN(Cc1cc2cc3c(cc2nc1Cl)OCO3)C(=O)c1ccco1	inconclusive: 9.2 µM [cytotoxic, partial curve]	–
O=C(NCc1ccc(OC(F)(F)F)cc1)C1CC(c2ccccc2C(F)(F)F)=NO1 (stereo not given)	inconclusive: 0.731 µM [cytotoxic, full curve, poor fit]	–
CNc1nc(-c2ccc3c(c2)CCN3C(=O)CC(C)(C)C)c(C)s1	inactive	–
CC(=O)NC1=NN(C(C)=O)C(C)(c2ccccn2)S1 (stereo not given)	inactive	–
CCCCN1C(=S)NC[C@@H]1Cc1ccc(O)cc1	inactive	–
Cc1ccc(S(=O)(=O)N2CCOCC2)cc1NC(=O)COC(=O)/C=C/c1ccc(F)cc1	inconclusive: 10.3 µM [cytotoxic, partial curve, poor fit]	–
CCCCn1c(=O)nc2n(-c3ccccc3C)c3ccccc3cc-2c1=O	active: 10.3 µM	–
CC(=O)NCc1cc(-c2ccc(Cl)cc2)no1	inconclusive: 6.51 µM [rising, partial curve]	–
CN(C(=O)CNc1ccccc1Cl)C1CCS(=O)(=O)C1 (stereo not given)	inconclusive: 16.4 µM [cytotoxic, single point]	–
Nc1c(C(=O)NCc2ccc(F)cc2)c2nc3ccccc3nc2n1CCCN1CCOCC1	inconclusive: 20.6 µM [cytotoxic, single point]	–
CCC(CC)C(=O)N=C1SC2CS(=O)(=O)CC2N1CCc1ccc(OC)cc1 (stereo not given)	inconclusive: 7.31 µM [cytotoxic, partial curve]	–
CCN(CC)S(=O)(=O)c1cccc(C(=O)NCC(c2ccccc2)N(C)C)c1 (stereo not given)	inconclusive: 9.2 µM [cytotoxic, partial curve]	–

Molecules from the list above that have two or more sulfur atoms, in the order listed:
SMILES	Potency	activity change, negative = cytotoxicity
c1ccc(-n2cnnc2SCc2nc3ccccc3s2)cc1	active: 20.6 µM	–
CCC(CC)C(=O)N=C1SC2CS(=O)(=O)CC2N1CCc1ccc(OC)cc1 (stereo not given)	inconclusive: 7.31 µM [cytotoxic, partial curve]	–

(list continues)

SMILES	Potency	activity change, negative = cytotoxicity
COc1ccc(C(=O)Nc2nnc(SCC(=O)NC3CCCC3)s2)c(OC)c1	inconclusive: 2.91 µM [cytotoxic, partial curve, poor fit]	–
Cc1ccccc1CN1CCc2nc(N3CCN(c4ccccn4)CC3)ncc2C1	inconclusive: 5.8 µM [cytotoxic, full curve]	–
CC(C)C[C@H]1CNC(=O)C(=O)N1C[C@@H]1CCCN1C[C@H](CC(C)C)N1C[C@H](Cc2ccc(O)cc2)N(CCc2ccccc2)C(=O)C1=O	inactive	–
CCOc1cc(/C=N/Nc2nc(N3CCCC3)nc(N3CCCC3)n2)ccc1O	inconclusive: 18.4 µM [cytotoxic, single point]	–
Cc1ccc(OCC(=O)Nc2ccccc2C(=O)NC2CC2)cc1	active: 8.2 µM	–
Cc1cc(C)cc(NS(=O)(=O)c2ccc3c(c2)OCC(C(=O)N2CCCC2)O3)c1 (stereo not given)	inconclusive: 20.6 µM [cytotoxic, single point]	–
CCNC(=O)c1c(NC(=O)COc2ccc(F)cc2)sc2c1CCCC2	inconclusive: 0.58 µM [cytotoxic, full curve, poor fit]	–
CCN1C[C@@H]2[C@@H]3C(=O)N(Cc4ccccc4)C(=O)[C@@H]3[C@](CC)(C(=O)OC)N2C1=NC	inactive	–
COC(=O)c1cc(OC)c(OC)cc1NC(=O)c1cccc(OC)c1OC	inconclusive: 18.4 µM [cytotoxic, partial curve]	–
Cc1nnc(SCC(=O)c2ccc(Cl)cc2)n(N)c1=O	inconclusive: 16.4 µM [cytotoxic, single point]	–
CCCC12CN3CC(C)(CN(C1)C3c1ccccc1Cl)C2=O (stereo not given)	inconclusive: 7.31 µM [rising, partial curve, poor fit]	–
O=C(Nc1ccc(N2CCCCC2)cc1)c1cc(S(=O)(=O)N2CCOCC2)ccc1F	–	inconclusive: -5.77%
O=C(c1cc([N+](=O)[O-])ccc1N1CCOCC1)N1CCOCC1	inactive	–
Cc1ccc(-c2[nH]nc(N)c2N=Nc2ccccc2C)cc1	inconclusive: 29.1 µM [cytotoxic, single point]	–
CC(C)(C)C1CCC(=NNC(=O)C(=O)NC2CCCCC2)CC1 (stereo not given)	–	inconclusive: -15.8%
COC(=O)N/N=C/c1cn(Cc2c(Cl)cccc2Cl)c2ccccc12	active: 16.4 µM	–
CCOc1ccccc1NC(=O)N(C)CCc1c(C)nn(CC)c1C	inactive	–
NNC(=O)c1csc(-c2cccc(C(F)(F)F)c2)n1	inconclusive: 16.4 µM [cytotoxic, single point]	–
CCOc1ccccc1-n1c(SCC(=O)N2CCCc3ccccc32)nnc1-c1cccnc1	active: 7.31 µM	–
COc1cc2c(cc1NCc1ccccn1)oc1ccccc12	inactive	–
Cc1cccc(Nc2nc(OCC#N)nc(N(C)C)n2)c1	inconclusive: 29.1 µM [cytotoxic, single point]	–
Cc1cc(C)cc(NS(=O)(=O)c2ccc(-c3cnc(C4CC4)o3)cc2)c1	active: 4.11 µM	–
CCOc1ccc(C2N3CC4(C(C)C)CN2CC(C(C)C)(C3)C4=O)cc1OC (stereo not given)	inactive	–
C=CCOc1c(Br)cc(CNc2ccc(NC(=O)C(C)C)c(OC)c2)cc1OCC	inactive	–

Whole records as entered above. Order of values: Potency	activity change, negative = cytotoxicity
CCOc1ccccc1NC(=O)N(C)CCc1c(C)nn(CC)c1C as listed: inactive	–
COC(=O)c1cc(OC)c(OC)cc1NC(=O)c1cccc(OC)c1OC as listed: inconclusive: 18.4 µM [cytotoxic, partial curve]	–

(cont.)

SMILES	Potency	activity change, negative = cytotoxicity
CCOC(=O)C1=C(C)N=C2SCCC(=O)N2C1c1cccs1 (stereo not given)	inconclusive: 29.1 µM [rising, single point]	–
COc1ccc(/C=N\NC(=O)c2ccccc2)cc1COc1ccc(F)cc1	inactive	–
COc1ccccc1Cc1c(-c2ccco2)nc2c3ccccc3ccn12	inconclusive: 9.2 µM [cytotoxic, partial curve]	–
CCCCn1c(Cc2ccccc2)n[nH]c1=S	inconclusive: 18.4 µM [cytotoxic, single point]	–
COc1cccc(C(c2nnnn2Cc2ccco2)N2CCN(c3cccc(C)c3C)CC2)c1OC (stereo not given)	inconclusive: 16.4 µM [cytotoxic, single point]	–
COc1ccc(F)c(CN2CCCC(CO)(Cc3cccc(Cl)c3)C2)c1 (stereo not given)	inactive	–
COCCCNC(=S)NC(=O)c1ccccc1	inconclusive: 29.1 µM [cytotoxic, single point]	–
CC(OC(=O)c1ccc(-c2ccc(O)cc2)cc1)C(=O)NC1CCCCC1C (stereo not given)	active: 16.4 µM	–
CCOC(=O)c1c(NC(=O)CN2CCN(S(=O)(=O)c3cc(Cl)ccc3Cl)CC2)sc(C(=O)N(C)C)c1C	inactive	–
CCOC(=O)CSc1nnc(NC(=O)c2cccc(S(=O)(=O)N3CCCCCC3)c2)s1	inconclusive: 11.2 µM [rising, partial curve]	–
Cc1cnc(CNc2nc3cc(-c4ccccc4C)sc3c(=O)n2C)cn1	inconclusive: 20.6 µM [cytotoxic, single point]	–
O=C(O)c1cccc(NC(=O)c2cn(-c3ccccc3)nc2-c2ccc(F)cc2)c1	inconclusive: 8.2 µM [rising, partial curve]	–
Cc1ccc(S(=O)(=O)N2[C@@H](c3cccc4ccccc34)C(C(=O)O)=C[C@H]2C(C)(C)C)cc1	inconclusive: 13 µM [rising, partial curve, poor fit]	–
O=C1CCc2ccc(OCCCCN3CCN(c4cccc(Cl)c4Cl)CC3)cc2N1	inconclusive: 29.1 µM [cytotoxic, single point]	–
Cc1cc(C)n2c(Nc3ccccc3C)c(-c3cccs3)nc2n1	inactive	–
C[C@H]1CN([C@@H](C)CO)S(=O)(=O)c2ccc(Br)cc2O[C@@H]1CN(C)C(=O)Nc1ccc2c(c1)OCO2	inconclusive: 8.2 µM [cytotoxic, partial curve, poor fit]	–
Cc1ccc(NC(NC(=O)Cc2ccccc2)C(Cl)(Cl)Cl)cc1 (stereo not given)	active: 14.6 µM	–
CCOC(=O)CSc1nc(N)cc(=O)[nH]1	inactive	–
Cc1cc(C)c2[nH]c(O)c(N=NC(=S)NCC3CCCO3)c2c1 (stereo not given)	inconclusive: 7.31 µM [cytotoxic, partial curve]	–
O=C(N/N=C/C=C/c1cccc([N+](=O)[O-])c1)c1ccncc1	inactive	–
CCOc1ccc2nc(SCC(=O)Nc3ccc(S(=O)(=O)N4CCCC4)cc3)c(C)cc2c1	inactive	–
COc1ccc(C)cc1N1CC(C(=O)OCc2nc(N)nc(Nc3ccccc3C)n2)CC1=O (stereo not given)	inconclusive: 18.4 µM [rising, partial curve, poor fit]	–

Reformatted as a markdown table: 2 of the compounds above.

| SMILES | Potency | activity change, negative = cytotoxicity |
| --- | --- | --- |
| Cc1cc(C)cc(NS(=O)(=O)c2ccc(-c3cnc(C4CC4)o3)cc2)c1 | active: 4.11 µM | – |
| CCOc1ccc(C2N3CC4(C(C)C)CN2CC(C(C)C)(C3)C4=O)cc1OC (stereo not given) | inactive | – |
